Test results from patent publication US11090313B2, “Methods for inhibiting muscle atrophy” (UNIVERSITY OF IOWA RESEARCH FOUNDATION, priority 2010, dated 2021).

Assays:
[1] = tested on: C57BL/6 mice; assay: Fasting-induced muscle atrophy in mice (i.p. dosing, 24 h fast); assay type: in vivo, mouse; conditions: i.p. twice, mg/kg: ursolic acid 200, oleanolic acid 200, metformin 250
Protocol: The mice were then fasted, and after 12 hours of fasting, the mice received a second dose of the compound or vehicle. After 24 hours of fasting, the blood glucose was measured and muscles were harvested. The data shown in FIGS. 6C-6H are means±SEM from ≤16 mice per condition. […] The effects of metformin and ursolic acid on fasting-induced muscle atrophy were also examined, i.e. the effect of 24 h fast (relative to ad lib feeding) on wet weight of lower hindlimb skeletal muscle (bilateral tibialis anterior (“TA” muscle), gastrocnemius, and soleus; see FIGS. 6E-6G). […] In FIGS. 6E-6H, each data point represents one mouse and the horizontal bars denote the means. In FIGS. 6C-6H, P-values were determined using unpaired t-tests.
Mice were then fasted, and after 12 hours of fasting, mice received a second dose of ursolic acid, oleanolic acid, or vehicle. After 24 hours of fasting, lower hindlimb skeletal muscles and liver were harvested and weighed.
To test this, food was withdrawn from mice, and then vehicle, ursolic acid (200 mg/kg) or tomatidine (50 mg/kg) were administered by i.p. injection. Twelve hours later, mice received another i.p. injection of vehicle or the same dose of ursolic acid or tomatidine. Twelve hours later, skeletal muscles were harvested and weighed. […] We next used the same protocol to compare the effects of vehicle (corn oil) and tomatidine (5, 15 and 50 mg/kg).

[2] = tested on: C57BL/6 mice; assay: Dietary ursolic acid in standard chow: muscle, fat, organ weights, grip strength, plasma markers

Compound | liver weight in fasted mice [1] | food intake ([2]; 0.27% ursolic acid in chow 4 weeks, then 48 h in CLAMS) | total body weight ([2]; ursolic acid in standard chow, 7 weeks)
C[C@H]1[C@H](C)CC[C@]2(C(=O)O)CC[C@]3(C)C(=CC[C@@H]4[C@@]5(C)CC[C@H](O)C(C)(C)[C@@H]5CC[C@]43C)[C@H]12 [ursolic acid] | but not liver weight | did not alter food intake | did not increase total body weight
CN(C)C(=N)N=C(N)N [metformin, reference compound] | increased liver weight |  | 
CC1(C)CC[C@]2(C(=O)O)CC[C@]3(C)C(=CC[C@@H]4[C@@]5(C)CC[C@H](O)C(C)(C)[C@@H]5CC[C@]43C)[C@@H]2C1 [oleanolic acid, reference compound] | increased liver weight |  | 
